Measured values as given in the supplement of paper PMC11006884.
The list shows a part of the results, in another mix than the full data.

Amino acid sequences for entries named in this document (tags omitted). A change or cut given only in a name is not applied to a line headed by its entry.
UniProt P45880: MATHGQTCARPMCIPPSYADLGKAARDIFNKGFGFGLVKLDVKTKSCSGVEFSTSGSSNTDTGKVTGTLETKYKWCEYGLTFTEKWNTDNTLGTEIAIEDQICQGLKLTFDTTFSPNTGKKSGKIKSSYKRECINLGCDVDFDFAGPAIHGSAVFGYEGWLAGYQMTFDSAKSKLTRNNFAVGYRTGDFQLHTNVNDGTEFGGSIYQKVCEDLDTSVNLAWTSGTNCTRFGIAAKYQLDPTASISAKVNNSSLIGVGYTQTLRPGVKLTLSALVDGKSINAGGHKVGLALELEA
UniProt P48643, whole entry, looked up: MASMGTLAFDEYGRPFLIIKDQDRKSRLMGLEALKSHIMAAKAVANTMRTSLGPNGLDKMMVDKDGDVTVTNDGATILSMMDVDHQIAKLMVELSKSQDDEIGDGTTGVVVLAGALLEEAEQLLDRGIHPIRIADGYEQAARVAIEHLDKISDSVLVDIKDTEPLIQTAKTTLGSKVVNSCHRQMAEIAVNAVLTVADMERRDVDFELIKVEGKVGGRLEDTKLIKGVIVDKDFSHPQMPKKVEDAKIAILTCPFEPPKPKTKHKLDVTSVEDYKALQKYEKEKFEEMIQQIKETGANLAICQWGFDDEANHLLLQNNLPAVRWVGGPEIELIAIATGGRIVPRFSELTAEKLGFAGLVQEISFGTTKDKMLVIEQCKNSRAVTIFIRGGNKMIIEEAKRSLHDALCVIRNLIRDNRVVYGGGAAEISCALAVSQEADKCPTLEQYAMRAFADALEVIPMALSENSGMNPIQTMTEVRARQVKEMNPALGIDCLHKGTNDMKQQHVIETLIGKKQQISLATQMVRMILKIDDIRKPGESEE
UniProt P49458: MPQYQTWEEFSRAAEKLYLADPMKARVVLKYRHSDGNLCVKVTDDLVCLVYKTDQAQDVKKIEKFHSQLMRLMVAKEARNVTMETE
UniProt P48230: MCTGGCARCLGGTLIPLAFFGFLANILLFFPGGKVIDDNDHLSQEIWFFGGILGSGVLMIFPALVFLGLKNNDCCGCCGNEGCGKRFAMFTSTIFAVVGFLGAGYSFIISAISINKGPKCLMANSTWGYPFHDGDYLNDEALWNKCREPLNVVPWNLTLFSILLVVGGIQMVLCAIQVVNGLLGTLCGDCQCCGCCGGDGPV
UniProt P49821, whole entry, looked up: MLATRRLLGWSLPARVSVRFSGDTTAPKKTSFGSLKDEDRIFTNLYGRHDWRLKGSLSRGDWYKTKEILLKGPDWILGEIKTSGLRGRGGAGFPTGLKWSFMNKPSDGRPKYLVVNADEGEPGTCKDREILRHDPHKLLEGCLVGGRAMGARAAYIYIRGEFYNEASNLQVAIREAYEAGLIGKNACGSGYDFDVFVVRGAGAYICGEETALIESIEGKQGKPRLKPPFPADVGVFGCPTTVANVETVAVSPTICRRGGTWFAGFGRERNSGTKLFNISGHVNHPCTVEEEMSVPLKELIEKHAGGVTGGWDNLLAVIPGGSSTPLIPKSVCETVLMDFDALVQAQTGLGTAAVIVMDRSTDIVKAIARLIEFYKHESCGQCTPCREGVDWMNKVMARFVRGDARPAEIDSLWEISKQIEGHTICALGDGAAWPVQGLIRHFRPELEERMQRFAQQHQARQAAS
UniProt P49327, whole entry, looked up: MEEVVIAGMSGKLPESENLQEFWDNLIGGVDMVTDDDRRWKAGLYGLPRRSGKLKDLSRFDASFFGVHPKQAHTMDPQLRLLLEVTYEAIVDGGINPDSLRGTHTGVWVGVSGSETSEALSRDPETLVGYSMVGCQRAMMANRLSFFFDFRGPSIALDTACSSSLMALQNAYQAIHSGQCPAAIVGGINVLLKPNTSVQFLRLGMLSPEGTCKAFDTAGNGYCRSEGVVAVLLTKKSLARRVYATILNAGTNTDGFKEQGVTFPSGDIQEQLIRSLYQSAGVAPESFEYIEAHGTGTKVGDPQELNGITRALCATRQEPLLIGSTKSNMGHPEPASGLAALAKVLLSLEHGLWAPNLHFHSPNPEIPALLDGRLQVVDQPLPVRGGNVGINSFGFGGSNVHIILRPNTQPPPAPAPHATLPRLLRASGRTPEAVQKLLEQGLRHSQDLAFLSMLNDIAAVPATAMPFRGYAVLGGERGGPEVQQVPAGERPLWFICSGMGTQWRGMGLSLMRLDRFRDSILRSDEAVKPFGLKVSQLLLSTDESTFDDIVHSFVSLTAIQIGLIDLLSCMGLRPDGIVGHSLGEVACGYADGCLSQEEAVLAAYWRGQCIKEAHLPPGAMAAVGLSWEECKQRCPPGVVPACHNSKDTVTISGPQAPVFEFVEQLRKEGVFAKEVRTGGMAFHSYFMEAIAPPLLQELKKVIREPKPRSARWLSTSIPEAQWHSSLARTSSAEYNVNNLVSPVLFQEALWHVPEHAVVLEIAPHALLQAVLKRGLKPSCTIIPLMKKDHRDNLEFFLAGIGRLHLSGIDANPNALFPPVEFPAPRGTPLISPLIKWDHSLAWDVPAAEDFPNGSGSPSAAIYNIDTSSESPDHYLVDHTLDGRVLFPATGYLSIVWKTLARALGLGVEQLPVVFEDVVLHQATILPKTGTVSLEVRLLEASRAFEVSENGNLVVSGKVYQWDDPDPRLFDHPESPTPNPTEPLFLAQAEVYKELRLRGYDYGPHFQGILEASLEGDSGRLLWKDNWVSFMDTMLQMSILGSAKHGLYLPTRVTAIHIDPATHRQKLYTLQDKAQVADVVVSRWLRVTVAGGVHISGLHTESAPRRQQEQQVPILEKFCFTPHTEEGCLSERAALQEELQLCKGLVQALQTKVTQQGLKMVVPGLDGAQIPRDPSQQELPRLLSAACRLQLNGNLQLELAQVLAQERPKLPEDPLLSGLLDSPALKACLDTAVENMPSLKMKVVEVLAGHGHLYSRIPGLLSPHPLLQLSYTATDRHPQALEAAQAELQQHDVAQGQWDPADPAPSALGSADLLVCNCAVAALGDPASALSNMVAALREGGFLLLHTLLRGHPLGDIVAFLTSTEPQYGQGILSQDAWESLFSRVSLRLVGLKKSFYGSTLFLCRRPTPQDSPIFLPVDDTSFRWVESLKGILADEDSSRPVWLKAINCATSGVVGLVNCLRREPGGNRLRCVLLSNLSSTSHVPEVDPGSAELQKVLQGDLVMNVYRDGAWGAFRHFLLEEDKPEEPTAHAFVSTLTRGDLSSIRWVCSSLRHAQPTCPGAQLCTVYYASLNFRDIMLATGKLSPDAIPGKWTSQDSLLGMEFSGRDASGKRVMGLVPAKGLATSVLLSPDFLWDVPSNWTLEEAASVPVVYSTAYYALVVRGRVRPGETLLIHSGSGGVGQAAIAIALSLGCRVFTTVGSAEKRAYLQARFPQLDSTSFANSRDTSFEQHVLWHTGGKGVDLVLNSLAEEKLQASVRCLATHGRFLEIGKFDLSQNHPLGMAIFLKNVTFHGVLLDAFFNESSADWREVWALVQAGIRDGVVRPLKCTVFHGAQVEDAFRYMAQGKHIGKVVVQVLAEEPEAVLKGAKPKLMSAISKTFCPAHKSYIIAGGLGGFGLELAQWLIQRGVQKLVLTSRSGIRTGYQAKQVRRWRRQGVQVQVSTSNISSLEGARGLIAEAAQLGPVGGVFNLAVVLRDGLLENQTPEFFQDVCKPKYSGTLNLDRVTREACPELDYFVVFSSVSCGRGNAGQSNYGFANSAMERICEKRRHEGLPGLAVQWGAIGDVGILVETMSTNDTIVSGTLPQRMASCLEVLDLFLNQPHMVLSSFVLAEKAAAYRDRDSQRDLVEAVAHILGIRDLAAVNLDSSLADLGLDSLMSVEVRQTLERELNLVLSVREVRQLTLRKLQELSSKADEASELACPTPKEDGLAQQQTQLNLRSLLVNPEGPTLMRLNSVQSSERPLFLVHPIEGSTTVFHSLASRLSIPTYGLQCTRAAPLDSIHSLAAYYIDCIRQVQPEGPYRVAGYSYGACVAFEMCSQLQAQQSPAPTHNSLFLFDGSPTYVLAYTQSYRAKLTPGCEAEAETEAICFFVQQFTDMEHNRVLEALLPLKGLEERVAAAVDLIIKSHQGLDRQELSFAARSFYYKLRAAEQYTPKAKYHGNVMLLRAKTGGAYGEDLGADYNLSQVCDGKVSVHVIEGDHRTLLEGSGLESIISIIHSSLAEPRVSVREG
UniProt P49588, whole entry, looked up: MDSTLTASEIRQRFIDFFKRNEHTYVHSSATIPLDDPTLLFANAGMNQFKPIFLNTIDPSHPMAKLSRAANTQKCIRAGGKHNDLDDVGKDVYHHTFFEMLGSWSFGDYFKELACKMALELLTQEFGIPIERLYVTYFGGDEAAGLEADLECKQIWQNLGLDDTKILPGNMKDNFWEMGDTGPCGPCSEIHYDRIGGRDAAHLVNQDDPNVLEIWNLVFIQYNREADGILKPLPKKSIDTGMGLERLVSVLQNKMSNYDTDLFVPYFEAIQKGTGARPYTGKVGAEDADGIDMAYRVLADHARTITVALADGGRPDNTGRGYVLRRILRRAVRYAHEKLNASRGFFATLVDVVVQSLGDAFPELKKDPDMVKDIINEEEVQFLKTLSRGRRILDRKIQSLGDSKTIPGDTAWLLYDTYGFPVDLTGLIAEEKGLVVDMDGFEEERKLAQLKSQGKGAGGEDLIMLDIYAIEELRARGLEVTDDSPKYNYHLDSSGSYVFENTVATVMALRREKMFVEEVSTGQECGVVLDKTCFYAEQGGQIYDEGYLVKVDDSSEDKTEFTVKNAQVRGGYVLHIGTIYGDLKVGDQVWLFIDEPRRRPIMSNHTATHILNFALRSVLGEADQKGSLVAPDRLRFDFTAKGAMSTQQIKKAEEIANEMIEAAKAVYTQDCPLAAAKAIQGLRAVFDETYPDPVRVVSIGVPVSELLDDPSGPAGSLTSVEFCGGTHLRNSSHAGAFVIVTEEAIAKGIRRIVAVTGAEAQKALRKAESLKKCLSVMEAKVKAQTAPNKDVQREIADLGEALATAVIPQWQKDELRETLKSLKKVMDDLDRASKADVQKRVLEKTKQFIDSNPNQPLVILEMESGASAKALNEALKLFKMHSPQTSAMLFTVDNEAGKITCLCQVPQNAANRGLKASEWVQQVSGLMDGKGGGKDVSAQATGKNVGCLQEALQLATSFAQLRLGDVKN
UniProt P43304: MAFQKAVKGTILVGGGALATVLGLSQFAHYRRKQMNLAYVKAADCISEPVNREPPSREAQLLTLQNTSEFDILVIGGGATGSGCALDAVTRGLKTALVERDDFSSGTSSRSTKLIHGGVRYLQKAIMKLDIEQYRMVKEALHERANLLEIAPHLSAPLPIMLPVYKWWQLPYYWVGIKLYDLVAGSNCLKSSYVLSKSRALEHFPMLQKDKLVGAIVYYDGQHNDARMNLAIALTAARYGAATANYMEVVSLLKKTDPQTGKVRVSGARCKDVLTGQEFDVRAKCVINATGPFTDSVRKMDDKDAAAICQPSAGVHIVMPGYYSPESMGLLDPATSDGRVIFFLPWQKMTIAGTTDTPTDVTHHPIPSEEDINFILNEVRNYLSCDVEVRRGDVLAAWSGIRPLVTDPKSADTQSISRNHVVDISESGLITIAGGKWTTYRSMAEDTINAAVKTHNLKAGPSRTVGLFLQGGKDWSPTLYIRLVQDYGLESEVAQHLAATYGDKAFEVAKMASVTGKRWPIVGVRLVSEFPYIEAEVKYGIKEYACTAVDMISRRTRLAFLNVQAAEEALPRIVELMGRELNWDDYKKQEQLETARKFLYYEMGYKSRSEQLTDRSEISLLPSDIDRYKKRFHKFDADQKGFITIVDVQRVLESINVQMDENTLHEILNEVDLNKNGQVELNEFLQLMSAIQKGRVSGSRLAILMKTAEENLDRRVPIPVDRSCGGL
UniProt P49321, whole entry, looked up: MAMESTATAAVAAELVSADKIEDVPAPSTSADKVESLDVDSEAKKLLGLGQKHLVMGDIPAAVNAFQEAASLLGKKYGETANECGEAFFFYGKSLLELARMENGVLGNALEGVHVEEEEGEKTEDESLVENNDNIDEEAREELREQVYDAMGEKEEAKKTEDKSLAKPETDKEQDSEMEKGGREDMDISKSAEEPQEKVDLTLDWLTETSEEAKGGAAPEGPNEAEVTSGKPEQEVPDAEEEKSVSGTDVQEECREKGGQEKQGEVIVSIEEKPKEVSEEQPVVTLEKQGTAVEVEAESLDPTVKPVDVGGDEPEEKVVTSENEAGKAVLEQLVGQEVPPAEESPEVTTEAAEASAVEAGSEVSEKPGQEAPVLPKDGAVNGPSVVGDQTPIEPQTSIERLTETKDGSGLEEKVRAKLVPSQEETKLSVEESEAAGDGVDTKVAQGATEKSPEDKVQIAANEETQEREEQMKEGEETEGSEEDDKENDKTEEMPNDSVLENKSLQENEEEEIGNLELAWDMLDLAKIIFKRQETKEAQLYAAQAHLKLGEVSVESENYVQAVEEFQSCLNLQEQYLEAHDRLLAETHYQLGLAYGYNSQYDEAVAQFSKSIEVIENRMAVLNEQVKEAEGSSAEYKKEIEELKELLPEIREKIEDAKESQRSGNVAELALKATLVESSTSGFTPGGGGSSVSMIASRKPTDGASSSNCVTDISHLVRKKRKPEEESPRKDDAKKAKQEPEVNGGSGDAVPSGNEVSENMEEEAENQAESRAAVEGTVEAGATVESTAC

Compound: COC(=O)C#Cc1ccccc1 [methyl 3-phenylpropiolate]
Experiment: log2 ratio of iodoacetamide-alkyne labeling of the cysteine site, DMSO over compound (competition); higher = stronger covalent engagement of the cysteine by the compound, active = 1 or more
Details: 500 µM; treatment time 1 h; system: HEK293T cell lysate
In short: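 Electrophile (500 µM) or vehicle was added to HEK293T lysate (2 mg/mL) for 1 h at ambient temperature before iodoacetamide alkyne labelling (1 h) and click coupling to sCIP-TMT reagents. After pooling, overnight trypsin digestion at 37 °C, streptavidin enrichment and acid elution, peptides were measured by Orbitrap Eclipse LC-MS/MS with FAIMS and quantified in FragPipe. Each cysteine's log2 competition ratio compares mean control-channel with mean compound-channel reporter intensity, control over compound. Data came from duplicate channels across three replicates, excluding cysteines quantified in only one replicate.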

log2 ratio of iodoacetamide-alkyne labeling, active:
VDAC2 C210 (UniProt P45880) 1.39, HCFC1 C1872 (UniProt P51610) 1.32

log2 ratio of iodoacetamide-alkyne labeling, inactive:
PREP C57 (UniProt P48147) 0.139, CCT5 C302 (UniProt P48643) 0.0322, SRP9 C39 (UniProt P49458) 0.0651, RPL14 C54 (UniProt P50914) 0.22, UniProt P48230_C2 -0.137, FXR1 C157 (UniProt P51114) 0.771, MSH2 C176 (UniProt P43246) 0.0995, IQGAP1 C781 (UniProt P46940) 0.821, NDUFV1 C286 (UniProt P49821) 0.31, FASN C1448 (UniProt P49327) 0.263, USP5 C195 (UniProt P45974) 0.206, VDAC2 C8 (UniProt P45880) 0.376, VDAC2 C47 (UniProt P45880) 0.538, AARS C723 (UniProt P49588) 0.264, RPL27A C70 (UniProt P46776) 0.176, GPD2 C385 (UniProt P43304) 0.0903, FASN C2468 (UniProt P49327) 0.138, NASP C708 (UniProt P49321) 0.364, INPP1 C10 (UniProt P49441) 0.473, LIG3 C929 (UniProt P49916) 0.317, USP5 C335 (UniProt P45974) -0.0751, UniProt P49591_C431 -0.00377, CCT3 C213 (UniProt P49368) 0.101, EIF2B2 C310 (UniProt P49770) 0.149, CCT5 C429 (UniProt P48643) 0.459, CCT5 C493 (UniProt P48643) 0.227, GMPS C449 (UniProt P49915) 0.151, UniProt P49591_C398 -0.294, LRBA C1704 (UniProt P50851) 0.262, RANBP2 C220 (UniProt P49792) 0.364, GCLC C553 (UniProt P48506) -0.0336, UniProt P49841_C199 0.0422, CCT5 C181 (UniProt P48643) 0.237, CCT4 C337 (UniProt P50991) 0.0635, CCT4 C252 (UniProt P50991) -0.0169
